Results are given in words; binding and its absence hold for the method and conditions named. A result given as binding can be weak or reduced; the word gives no strength. Sequences can lack the tags named with a protein.
Target: T1, C-terminally TAP-tagged Tsr1 (S. cerevisiae) (UniProt Q07381)
T1 sequence: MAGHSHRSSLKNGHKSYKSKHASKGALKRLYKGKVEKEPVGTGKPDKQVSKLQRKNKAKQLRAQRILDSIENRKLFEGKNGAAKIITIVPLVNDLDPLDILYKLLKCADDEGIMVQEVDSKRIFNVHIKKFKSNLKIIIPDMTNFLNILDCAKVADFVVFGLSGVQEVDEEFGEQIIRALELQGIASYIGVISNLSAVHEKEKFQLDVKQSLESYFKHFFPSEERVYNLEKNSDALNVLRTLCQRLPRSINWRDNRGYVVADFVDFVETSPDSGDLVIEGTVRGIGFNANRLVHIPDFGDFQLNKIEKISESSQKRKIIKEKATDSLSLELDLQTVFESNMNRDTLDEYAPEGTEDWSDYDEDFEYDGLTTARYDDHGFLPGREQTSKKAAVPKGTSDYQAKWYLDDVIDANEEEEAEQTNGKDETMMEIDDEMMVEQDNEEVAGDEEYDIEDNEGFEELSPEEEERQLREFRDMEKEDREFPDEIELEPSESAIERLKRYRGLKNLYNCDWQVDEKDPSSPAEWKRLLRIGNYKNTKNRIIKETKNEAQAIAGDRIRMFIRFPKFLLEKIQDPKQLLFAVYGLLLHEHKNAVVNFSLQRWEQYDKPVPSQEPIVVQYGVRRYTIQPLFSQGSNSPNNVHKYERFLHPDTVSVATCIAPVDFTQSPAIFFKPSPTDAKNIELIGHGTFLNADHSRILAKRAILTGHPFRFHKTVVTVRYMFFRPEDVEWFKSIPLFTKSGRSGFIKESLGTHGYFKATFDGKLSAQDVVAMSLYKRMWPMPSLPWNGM
Assay: cryo-EM structure; pre-40S particles from rps20Δloop cells purified via Tsr1-TAP (lysis buffer with 5 mM MgCl2) and a 10–30% sucrose gradient; single particle analysis, classes C1-S20Δloop (3.47 Å) and C2-S20Δloop (3.79 Å); the partners stand in one ribonucleoprotein particle

Sequences of proteins named here, by UniProt entry; tags and fusion partners are left off. A change or cut given only in a name is not applied to a line headed by its entry.
UniProt Q08745: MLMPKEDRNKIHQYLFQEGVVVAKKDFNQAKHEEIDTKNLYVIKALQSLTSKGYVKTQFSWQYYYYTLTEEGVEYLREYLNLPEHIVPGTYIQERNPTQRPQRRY

For “Rps10 (endogenous) (from UniProt Q08745)”, the binding was “binds”.

— publication PMC6588571
